According to article doi:10.1101/2020.07.19.210252:
Like-named read-outs stand apart in the source and are kept apart here. For at least one entry, the source does not settle the construct or the ends of the probe. For part of these data: No signal at the amounts used counts as a negative. For part of these data: Weaker means in comparison with the reference protein, sequence or condition of that experiment.

Protein sequences, listed by entry. Tags and fused reporters are not part of them.
UniProt P51114, whole entry: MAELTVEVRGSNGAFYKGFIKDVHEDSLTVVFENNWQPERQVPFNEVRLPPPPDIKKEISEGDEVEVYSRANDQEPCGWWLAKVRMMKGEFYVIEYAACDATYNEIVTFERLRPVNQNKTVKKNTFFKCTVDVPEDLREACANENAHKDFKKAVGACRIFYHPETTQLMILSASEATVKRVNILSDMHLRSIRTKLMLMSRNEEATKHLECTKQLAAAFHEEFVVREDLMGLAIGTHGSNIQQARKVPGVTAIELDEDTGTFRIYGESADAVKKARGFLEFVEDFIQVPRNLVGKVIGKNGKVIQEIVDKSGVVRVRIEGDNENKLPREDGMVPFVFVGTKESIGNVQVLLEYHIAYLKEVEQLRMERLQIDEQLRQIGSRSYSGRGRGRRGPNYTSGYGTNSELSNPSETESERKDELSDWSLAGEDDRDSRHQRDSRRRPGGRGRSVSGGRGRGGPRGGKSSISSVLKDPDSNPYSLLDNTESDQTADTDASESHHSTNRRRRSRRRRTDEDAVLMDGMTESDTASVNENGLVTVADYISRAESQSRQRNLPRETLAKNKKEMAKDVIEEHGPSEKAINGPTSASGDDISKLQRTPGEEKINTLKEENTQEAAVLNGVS

Tests used:
GST = experiment: EMSA
FXR1-GST (Homo sapiens) = FXR1-GST (Homo sapiens) (UniProt P51114); experiment: EMSA

GAAAGAUUUAGCCAU [cMYC 3'UTR-ARE1]
binding result (GST): no binding

AACAUAUUUAUUCUU [cMYC 3'UTR-ARE6]
binding result (FXR1-GST (Homo sapiens); described as poor affinity): binds more weakly

UUAAGAUUUACACAA [cMYC 3'UTR-ARE3]
binding result (FXR1-GST (Homo sapiens)): binds more weakly
